Measured data: PubChem BioAssay AID743454 (Peter MacCallum Cancer Centre, 2014)
Assay: 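Knock-downs lowering viability or raising caspase 3/7 activity in vorinostat-treated resistant cells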 (primary screen). System: human HCT116-VR colon cancer cells, selected for vorinostat resistance. Reagents: siRNA pool against human genes, 40 nM siRNA pool. Time to read-out: vorinostat for 24 h, read-out about 72 h after transfection. Conditions: vorinostat at 2.5 µM final. Read-out: 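Two measures, CellTiter-Fluor viability and luminescent caspase 3/7 activity, each as fold change against same-plate mock wells, mean of duplicates, then screen-wide robust z-score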. Reading the numbers: viability robust z-score: higher = more viable cells than screen typical; caspase robust z-score: higher = more caspase 3/7 activity than screen typical. Rule for the call: 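a knock-down is a hit when classed RV1 or RV2 for lowered viability, or CA1 or CA2 for caspase activation; those lethal without drug were dropped; hits were retested singly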.
In all, the deposit lists about 18,000 reagents; below is a part drawn at random. 450 of all reagents (2.5%) count as active. 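Single biological run; no consistent viability z cut-off exists, so the class columns, not z-scores, define the calls.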

gene symbol | viability hit class | caspase hit class | viability robust z-score | caspase robust z-score | Call
ARHGEF25 (GeneID 115557) | no change | no change | -0.5 | 0 | inactive
PHACTR3 (GeneID 116154) | no change | no change | -0.26 | -0.58 | inactive
NTN3 (GeneID 4917) | no change | no change | -0.82 | 2.01 | inactive
MICU1 (GeneID 10367) | no change | CA2 (caspase activation) | -2.64 | 6.25 | active
MMRN2 (GeneID 79812) | no change | no change | -1.17 | -0.43 | inactive
SAMD8 (GeneID 142891) | RV2 (reduced viability) | no change | -3.26 | 2.22 | active
SCARA5 (GeneID 286133) | no change | no change | 0.92 | 1.69 | inactive
ZNF804A (GeneID 91752) | no change | no change | 0.04 | 0.67 | inactive
UGT1A3 (GeneID 54659) | no change | no change | -0.21 | 1.34 | inactive
ZNF114 (GeneID 163071) | no change | no change | -0.14 | -0.42 | inactive
MEF2A (GeneID 4205) | no change | no change | 1.24 | -0.58 | inactive
PLEKHH3 (GeneID 79990) | no change | no change | -0.57 | -0.3 | inactive
TAF2 (GeneID 6873) | no change | no change | -0.23 | -0.82 | inactive
PIGS (GeneID 94005) | no change | no change | -0.21 | -0.62 | inactive
TMOD3 (GeneID 29766) | no change | no change | -0.58 | 1.88 | inactive
ESR2 (GeneID 2100) | no change | no change | -0.6 | 2.92 | inactive
TAF15 (GeneID 8148) | no change | no change | 0.48 | 0.03 | inactive
NR6A1 (GeneID 2649) | no change | no change | 0.68 | -0.59 | inactive
MTG1 (GeneID 92170) | no change | no change | 0.23 | 0.12 | inactive
ANGEL1 (GeneID 23357) | no change | no change | 0.14 | 1.96 | inactive
MAIP1 (GeneID 79568) | no change | no change | -0.09 | 0.9 | inactive
PLEKHA3 (GeneID 65977) | no change | no change | 1.45 | 0.08 | inactive
KATNAL1 (GeneID 84056) | no change | no change | -1.04 | 0.6 | inactive
